Some of these results come from one statement about several compounds together.
Legend:
[1] = system: Streptococcus pneumoniae ATCC49619; experiment: MIC against Streptococcus pneumoniae ATCC49619 (Agar Dilution or Microdilution Test, CLSI M7-A7); type: cell-based
[2] = system: Staphylococcus aureus ATCC49951; experiment: MIC against Staphylococcus aureus ATCC49951 (Agar Dilution or Microdilution Test, CLSI M7-A7); type: cell-based

Substance | MIC [1] [µg/mL] | MIC [2] [µg/mL]
14-O-{[(1R, 2R, 4S)-4-Amino-2-hydroxy-cyclohexylsulfanyl]-acetyl}-mutilin hydrochloride+(1S, 2S, 4R) diastereomer hydrochloride [Example 3] | ≤ 2 | ≤ 2
14-O-{[(1R, 2R, 5R)-5-Diethylamino-2-hydroxy-cyclohexylsuffanyl]-acetyl}-mutilin+(1S, 2S, 5S) diastereomer [Example 10] | ≤ 2 | ≤ 2
14-O-{[(1R, 2R, 5S)-5-Ethylamino-2-hydroxy-cyclohexylsulfanyl]-acetyl}-mutilin hydrochloride+(1S, 2S, 5R) diastereomer hydrochloride [Example 7] | ≤ 2 | ≤ 2
14-O-{[(1R, 2R, 5S)-5-Amino-2-hydroxy-cyclohexylsulfanyl]-acetyl}-mutilin hydrochloride+(1s, 2S, 5R) diastereomer hydrochloride [Example 2] | ≤ 2 | ≤ 2
14-O-{[(1R, 2R, 3R)-3-Amino-2-hydroxy-cyclohexylsulfanyl]-acetyl}-mutilin hydrochloride+(1S, 2S, 3S) diastereomer hydrochloride [Example 5] | ≤ 2 | ≤ 2
14-O-{[(1R, 2R, 3R)-3-Ethylamino-2-hydroxy-cyclohexylsulfanyl]-acetyl}-mutilin+(1S, 2S, 3S) diastereomer [Example 11] | ≤ 2 | ≤ 2
14-O-{[(1R, 2R, 4S)-4-Diethylamino-2-hydroxy-cyclohexylsulfanyl]-acetyl}-mutilin+(1S, 2S, 4R) diastereomer [Example 9] | ≤ 2 | ≤ 2
14-O-{[(1R, 2R, 5S)-5-Diethylamino-2-hydroxy-cyclohexylsulfanyl]-acetyl}-mutilin hydrochloride+(1S, 2S, 5R) diastereomer hydrochloride [Example 8] | ≤ 2 | ≤ 2
14-O-{[(1R, 2R, 4S)-4-(Formyl-hydroxy-amino)-2-hydroxy-cyclohexylsulfanyl]-acetyl}-mutilin+(1S, 2S, 4R) diastereomer [Example 13] | ≤ 2 | ≤ 2
14-O-{[(1R, 2R, 3R/S)-3-(Formyl-hydroxy-amino)-2-hydroxy-cyclohexylsulfanyl]-acetyl}-mutilin+(1S, 2S, 3R/S) diastereomer [Example 15] | ≤ 2 | ≤ 2
14-O-{[(1R, 2R, 5S)-5-(Formyl-hydroxy-amino)-2-hydroxy-cyclohexylsulfanyl]-acetyl}-mutilin+(1S, 2S, 5R) diastereomer [Example 14] | ≤ 2 | ≤ 2
14-O-{[(1R, 2R, 5R)-5-Amino-2-hydroxy-cyclohexylsulfanyl]-acetyl}-mutilin+(1S, 2S, 5S) diastereomer [Example 4] | ≤ 2 | ≤ 2
14-O-{[(1R, 2R, 3R)-3-Diethylamino-2-hydroxy-cyclohexylsulfanyl]-acetyl}-mutilin+(1S, 2S, 3S) diastereomer [Example 12] | ≤ 2 | ≤ 2

Source: patent publication US20090118366A1, “ORGANIC COMPOUNDS” (Nabriva Therapeutics Forschungs GmbH, priority 2007, published 2009)
